In publication PMC3046137:
These are yes or no findings as the source states them, for the method shown. Some results given as binding are weak or reduced against the parent protein; the word gives no strength. Tags and fused reporters may be left off the sequences shown.

Amino acid sequences for entries named in this document (tags omitted).
UniProt P40337: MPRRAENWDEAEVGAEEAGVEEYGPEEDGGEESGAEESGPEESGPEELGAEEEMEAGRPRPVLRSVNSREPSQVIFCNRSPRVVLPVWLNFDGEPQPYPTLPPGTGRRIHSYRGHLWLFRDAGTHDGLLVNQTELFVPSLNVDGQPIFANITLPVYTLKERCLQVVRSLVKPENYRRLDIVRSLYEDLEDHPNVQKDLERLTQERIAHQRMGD

Target: T1, FLAG-p160 (Myb-binding protein p160) (UniProt Q7TPV4)
T1 sequence: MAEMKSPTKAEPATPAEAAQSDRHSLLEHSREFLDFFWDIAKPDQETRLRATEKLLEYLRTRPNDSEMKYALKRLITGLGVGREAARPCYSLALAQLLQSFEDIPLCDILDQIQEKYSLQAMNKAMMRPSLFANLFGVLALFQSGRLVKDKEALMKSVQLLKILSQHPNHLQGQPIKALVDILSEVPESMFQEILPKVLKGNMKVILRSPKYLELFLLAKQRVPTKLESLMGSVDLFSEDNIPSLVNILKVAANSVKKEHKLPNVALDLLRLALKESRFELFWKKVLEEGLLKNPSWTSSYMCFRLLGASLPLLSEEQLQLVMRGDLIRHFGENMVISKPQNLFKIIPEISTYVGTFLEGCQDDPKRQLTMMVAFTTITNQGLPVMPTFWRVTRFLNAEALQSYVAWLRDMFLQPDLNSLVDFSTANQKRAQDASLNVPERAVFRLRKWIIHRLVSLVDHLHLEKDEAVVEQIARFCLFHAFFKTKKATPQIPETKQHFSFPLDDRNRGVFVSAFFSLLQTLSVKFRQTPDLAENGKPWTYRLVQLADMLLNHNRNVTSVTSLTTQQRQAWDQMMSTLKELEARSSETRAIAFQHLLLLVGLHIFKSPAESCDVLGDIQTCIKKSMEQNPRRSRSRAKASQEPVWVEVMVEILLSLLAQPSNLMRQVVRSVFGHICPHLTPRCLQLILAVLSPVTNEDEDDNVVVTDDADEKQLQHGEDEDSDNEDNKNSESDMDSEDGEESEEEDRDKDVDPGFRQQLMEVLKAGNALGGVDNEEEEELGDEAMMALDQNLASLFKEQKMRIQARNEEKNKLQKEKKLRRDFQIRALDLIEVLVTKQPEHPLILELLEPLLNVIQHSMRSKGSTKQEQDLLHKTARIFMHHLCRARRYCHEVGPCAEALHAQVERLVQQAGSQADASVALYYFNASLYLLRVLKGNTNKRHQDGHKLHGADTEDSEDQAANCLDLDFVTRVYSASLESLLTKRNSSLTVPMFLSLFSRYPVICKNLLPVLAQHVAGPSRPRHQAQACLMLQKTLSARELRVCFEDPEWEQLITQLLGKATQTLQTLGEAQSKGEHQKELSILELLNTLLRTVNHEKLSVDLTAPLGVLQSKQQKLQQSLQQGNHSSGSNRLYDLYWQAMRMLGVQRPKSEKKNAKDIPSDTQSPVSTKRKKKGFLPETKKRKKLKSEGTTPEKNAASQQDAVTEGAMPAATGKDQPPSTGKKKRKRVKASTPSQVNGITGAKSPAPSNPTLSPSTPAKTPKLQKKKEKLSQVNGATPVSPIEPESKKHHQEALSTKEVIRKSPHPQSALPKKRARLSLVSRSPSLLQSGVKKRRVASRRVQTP
Assay: far-Western, overlay or dot blot; FLAG-p160 immunoprecipitated from transfected 293T cells, fractionated by SDS-PAGE and transferred to nitrocellulose; blot probed with bacterially-produced purified GST-VHL (GST as control probe, FLAG empty vector as control lane); both purified

GST-VHL (from UniProt P40337 1-213)
binding: binds
